Data from PMC5610320.
These are yes or no findings as the source states them, for the method shown. In cells and extracts the contact can be indirect. A result given as binding can be weak or reduced; the word gives no strength.

T1: MKK7 (endogenous, rat primary mesencephalic neurons) (rat (endogenous in primary mesencephalic neurons)) (UniProt Q4KSH7)
T1 sequence: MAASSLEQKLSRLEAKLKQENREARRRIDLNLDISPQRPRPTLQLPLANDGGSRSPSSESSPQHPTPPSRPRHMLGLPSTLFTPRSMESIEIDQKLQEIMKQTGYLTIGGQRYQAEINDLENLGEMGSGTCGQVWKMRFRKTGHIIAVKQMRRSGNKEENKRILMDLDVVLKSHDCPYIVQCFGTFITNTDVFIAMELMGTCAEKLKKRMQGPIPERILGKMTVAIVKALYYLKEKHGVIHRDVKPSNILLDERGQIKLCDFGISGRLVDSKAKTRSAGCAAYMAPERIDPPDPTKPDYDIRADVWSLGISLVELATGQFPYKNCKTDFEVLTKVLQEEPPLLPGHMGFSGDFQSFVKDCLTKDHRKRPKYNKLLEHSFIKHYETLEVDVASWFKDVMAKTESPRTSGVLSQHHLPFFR


Key:
[1] = target: T1, MKK7 (endogenous, rat primary mesencephalic neurons) (rat (endogenous in primary mesencephalic neurons)); assay: co-IP; endogenous proteins in lysates (buffer A) of primary rat mesencephalic neurons, untreated or treated with 200 μM MPP+ for 2 h, with control or CIB1 siRNA; immunoprecipitation with antibodies to ASK1 or to MKK7, immunoblot
[2] = target: ASK1 (endogenous, rat primary mesencephalic neurons) (rat (endogenous in primary mesencephalic neurons)); assay: as above

| Molecule | binding [1] | binding [2] |
| --- | --- | --- |
| ASK1 (endogenous, rat primary mesencephalic neurons) (enzyme) | binds |  |
| CIB1 (endogenous, rat primary mesencephalic neurons) (protein, UniProt Q9R010 1-191) MGGSGSRLSKELLAEYQDLTFLTKQEILLAHRRFCELLPPEHRTVEESLHTRVSFEQILSLPELKANPFKERICMVFSTSPTRDSLSFEDFLDLLSVFSDTATPDIKSHYAFRIFDFDDDGTLDREDLSRLVNCLTGEGEDTRLSASEMKQLIDNILEESDIDRDGTINLSEFQHVISRSPDFASSFKIVL |  | binds |
